US7732178B2, “Laccase enzymes and their uses” (AB Enzymes Oy, priority 2004, dated 2010)

B1: TaLcc4: Thielavia arenaria ALKO 4197 laccase, SEQ ID NO: 45, produced in Trichoderma reesei (protein)
chain: MISRLLFTSSFTATLASALPGLLYAPHSSALLARSSCSGNTASTRSQWCDYSIDTDYTTEPVDTGVTREYWLELTDVTVSPDGVSRSAMAVNGSIPGPTIFADWGDTVVVHVTNSLSTSLNGTSIHWHGIRQNYTNQNDGVASITQCPLAVGESTTYTWKATQYGSSWYHSHFSLQAWEGVFGGIIINGPSTANYDEDLGMLFLNDWDHQTVDELYSSAETSGPPTLANGLINGTNVYGEDGDSSQTGTRLAVSFTSGTSYRMRLVNAAVDTHWKFSIGNHTMTVMAADLVPIEPYETTVLTIGMGQRYDIVVTADQADVADNFWMRAIPQSACSDNDSADNIRGIVYYGDSPGTPSTTGYDFEDACDDETANITPYISKTVSSAEWNDLETASVSRNSAGLFKWYLNSTTMLVDWAKPTLEMVTDNVTEYDSDDAIIELNEANQWVYMVVQTTLQVPHPIHLHGHDFFILAQGSGTYDSSTVTLKTDNPPRRDTAMLPSQGYLVMAWETDNPGVWLMHCHIGWHTSEGFALQFIERKSEIASIVSTSTMKDICTKWEEFQEEYSIEQEDSGV
modifications: Thielavia arenaria ALKO4197; (1)..(573) Deduced amino acid sequence of Thielavia arenaria ALKO4197 TaLcc4
B2: TaLcc3: Thielavia arenaria ALKO 4197 laccase, SEQ ID NO: 43, produced in Trichoderma reesei (protein)
chain: MVCLQYQLTAACFAVLAVVTTPASCSPVQPSPVHDLLPRQTIIPGGKPCGQNNATNRGCWKNNWNITTDYEVDTPPAFNTRVYDLHITNVTNWLGPDGVRKPAMLINGSFPGPTISADWGDYIIVNVHNDMQDNGTSIHWHGIRQLGESNQDGANGVTECPIPPGSSKTYDFHVTQYGTSWYHSHYSNQYGNGVVGALIVRGPASANYDIDLGPYLISDYYYETADRLHLRAELVSNGPPPDSDNILFRGKNINPKRAGSGSYDRLVLTPGKKHLIRLINASVDNSFVISLVGHNFTVISTDMVPITPVVRSSLFMGVGQRYDVIVEANQPVGNYWLNATLEAQNNCGHSVNPFPAAIVQYEGASSTALPTNRGTPLTATCNGEKGFSPIVKRTVSSSLFQPSTLPVSLEFPTTDRGQVFEWRVKNTPISVEWEHPVLEYILQGNTSFPAKANLIEVPQANVWTFWVIQNGFGLPHPIHLHGHDFLVLGVGNGTFDAASMRGLLNFNNPVRRDVEQMPGNGWLVIAFKTDNPGCWLMHCHIGWHVAMGLGIQFLERRSDILALMKLDQMVPNCEAWRAYARTSPYLPKLDSGLKRGVEMREGMEPAVRRIG
modifications: Thielavia arenaria ALKO4197; (1)..(611) Deduced amino acid sequence of Thielavia arenaria LAKO4197 TaLcc3
B3: CtLcc1: Chaetomium thermophilum ALKO 4265 laccase, SEQ ID NO: 47, produced in Trichoderma reesei (protein)
chain: MKFLTYATALLGALTAVVGAIPTRSGTKKKYIRDGPGPCHTPSNRACWAPGFDINTDYEVNTPNTGVTRNYTLTLTEEDNWTGPDGVVKEKIMLVNGKTLGPTIEANWGDWIEVKVINNLLTNGTSIHWHGIHQKGSNLHDGANGVTECPIPPNGGQRTYRFRAQQYGTSWYHSHFSAQYGNGIVGPIVIHGPASLPYDIDLGPFPLTDYYYKSADELVRHTQNNGPPFSDNVLFNGTGVHPQTGHGQYAKVTLTPGKRHRLRIINMSTENHFQVSLVGHQFTVIAADMVPVHSYTTDSLFLAVGQRYDVTIDASQTPGNYWFNVTFGGGFACGGSFNPNPAAIFHYEGAPDALPTDPGVPPRDHNCLDTLDLVPVVPRNVQVNQFVKKPENTLPVELSLGGTPLFVWKVNGSAIDVDWGNPVLQYVMDRNTSYRQADNIVEVNGVNQWTYWLIENDPNGAFSLPHPMHLHGHDFLIVGRSPDVPPGSNQRYNFDPATDIYRLRGQNPTRRDVAMLPAGGWLLLAFLTDNPGAWLFHCHIAWHVSGGLSVDFLERPNDLRNSILQHDKDEFNRVCNEWRTYWPNSPHPKIDSGLKHRWVEESEWLVR
modifications: Chaetomium thermophilum ALKO4265; (1)..(607) Deduced amino acid sequence of Chaetomium thermophilum ALKO4265 CtLcc1
B4: TaLcc2: Thielavia arenaria ALKO 4197 laccase, SEQ ID NO: 41, produced in Trichoderma reesei (protein)
chain: MLTETLKSRNMLQSILALLATALGSSAFAIPELPEVSLQPRQACENTATSRQCWGDLSIDTNYYEVLPSTGRPPQEYWLSVVEGPCAPDGYNRTCMTFNGTVPGPTLFADWGDELVIHVTNNMVNNGTAIHWHGIRMLNNTLNDGVPGVTQCAIAPGESMTYRFNVTQYGSTWYHSHFSLQYAEGLFGGMILRGPSTANWDEDLGVLFLQDWSHVEAFTRWHEAKAGFPPSLDGGLINGTNTFDCSTLSPTDPKCTGNGKKFETVFEPGKKYLIRLINVAIDGVFQFSIDGHSLTVIATDLVPIVPYTTDSVQITIGQRYDIIVEANATPGNYWMRADWVTACVTNDHPEHMTGIVRYDASSIDPPTSESNVTKTSSCLGEPNEKTIPHLSLDVTNIGGTNVEELSFDTTSGDYFQWTLNTSSLVLDWGNPTMARIFNGDAIFPTEYNVVAVNKTGTGPEWTVLVIQDQSNLPIAHPIHLHGHDFWVLAAEEGVFNGNISSFNTRNPARRDVATLPGRGYLAIAFQIDNPGTWLTHCHIAWHASQGLSLEFVESQSEIVTDEVSRGVFNDVCASWRAHDPLWEQEDSGI
modifications: Thielavia arenaria ALKO4197; (1)..(589) Deduced amino acid sequence of Thielavia arenaria ALKO4197 TaLacc2
B5: TaLcc1: Thielavia arenaria ALKO 4197 laccase, SEQ ID NO: 39, produced in Trichoderma reesei (protein)
chain: MKSWAAAVALMVGILSPHAAAAPPANPVQRDMLQVLEARQSGPTCNTPSNRACWTNGFDINTDYEVSTPNTGRTVAYQLTLTEKENWIGPDGVLKNVVMLVNDKIIGPTIRANWGDNIEVTVINNLKTNGTSMHWHGLRQLGNVFNDGANGVTECPIPPKGGRKTYKFRATQYGTSWYHSHFSAQYGNGVVGTIQIDGPASLPYDIDLGVFPLMDYYYRSADELVHFTQSNGAPPSDNVLFNGTARHPETGAGQWYNVTLTPGKRHRLRIINTSTDNHFQVSLVGHNMTVIATDMVPVNAFTVSSLFLAVGQRYDVTIDANSPVGNYWFNVTFGDGLCGSSNNKFPAAIFRYQGAPATLPTDQGLPVPNHMCLDNLNLTPVVTRSAPVNNFVKRPSNTLGVTLDIGGTPLFVWKVNGSAINVDWGKPILDYVMSGNTSYPVSDNIVQVDAVDQWTYWLIENDPTNPIVSLPHPMHLHGHDFLVLGRSPDELPSAGVRHIFDPAKDLPRLKGNNPVRRDVTMLPAGGWLLLAFKTDNPGAWLFHCHIAWHVSGGLSVDFLERPNDLRTQLNSNAKRADRDDFNRVCREWNAYWPTNPFPKIDSGLRHRFVEESEWMVR
modifications: Thielavia arenaria ALKO4197; (1)..(617) Deduced amino acid sequence of Thielavia arenaria ALKO4197 TaLcc1

How the values were obtained:
[1] = Isoelectric focusing (pI); format: physicochemical
Procedure: Molecular weight of the T. arenaria and C. thermophilum laccases were determined on SDS-PAGE according to Laemmli (1970) The gels used in the SDS-PAGE analysis were ready-made 12% Tris HCl gels (BioRad). Protein bands were visualized by staining with Coomassie Brilliant Blue (R 350; Pharmacia) and compared with molecular weight markers (Prestained Protein Marker Broad Range #7708S; New England BioLabs, Beverly, Mass.). The molecular weight of the both laccases was approximately 80 kDa. The isoelectric point of the laccases was determined with isoelectric focusing within the pH range of 3-9 (Pharmalyte IEF, Pharmacia) on a LKB 2117 Multiphor II Electrophoresis System (LKB Pharmacia, Bromma, Sweden) according to the manufacturer's instructions.
The purified recombinant Thielavia and Chaetomium laccases were characterized in terms of pH optimum, thermal stability, and pI as described in Example 2. The molecular weight was determined by MALDI-TOF mass spectrometry on a Ultraflex™ time-of-flight instrument (BrukerDaltonics, Germany) as previously described (Palonen et al., 2003). The redox-potentials of the T1 coppers of for CtLcc, and TaLcc2 laccases were determined by photometric copper titration in 0.1 M KH2PO4 (pH 6.0) as described by Xu et al. (1996) using the redox titrant couple K3Fe(CN)6/K4Fe(CN)6. The redox potential of TaLcc1 was determined with a combined Pt—AgCl/KCl microelectrode at pH 5.0 according to Sigoillot et al (2004). The characterization results are collected to Table 14.

[2] = pH optimum / pH range of activity on guaiacol; format: biochemical; conditions: McIlvaine buffer, guaiacol as substrate

| Molecule | Number of pI isoforms (bands in isoelectric focusing) [1] | pH optimum on guaiacol [2] [guaiacol] | pH optimum on guaiacol ([2]; listed as CtLcc 1) |
| --- | --- | --- | --- |
| B1 | 1 | – | – |
| B2 | 2 | – | – |
| B3 | 3-4 | 5.0 | 5.0 |
| B4 | 1 | – | – |
| B5 | 6-7 | 6.0 | – |
